Assay results: the supplement of paper PMC4604168 (melanoma cell lines)
This is one part of the list. Many values rest on one well or one pass, so single values are uncertain.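 The apoptosis fraction was the count of cleaved-PARP antibody-stained nuclei relative to all DNA-stained nuclei, imaged in 1,536-well plates. Screening doses were set so most cells survived, and baseline and induced cleaved-PARP levels vary greatly across cell lines.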

Tests used:
Assay in all cases: cleaved PARP positive nuclei fraction relative to DMSO control; melanoma cells; higher = more apoptosis
Conditions in all cases: library dose: low library concentration; 72 h
MZ2-MEL = system: MZ2-MEL
MeWo = system: MeWo
RPMI7951 = system: RPMI7951
RVH-421 = system: RVH-421
SkMel28 = system: SkMel28
SkMel2 = system: SkMel2
SkMel30 = system: SkMel30
SkMel5 = system: SkMel5
UACC257 = system: UACC257
UACC62 = system: UACC62

Structure (SMILES)	cleaved PARP positive nuclei fraction (MZ2-MEL)	cleaved PARP positive nuclei fraction (MeWo)	cleaved PARP positive nuclei fraction (RPMI7951)	cleaved PARP positive nuclei fraction (RVH-421)	cleaved PARP positive nuclei fraction (SkMel28)	cleaved PARP positive nuclei fraction (SkMel2)	cleaved PARP positive nuclei fraction (SkMel30)	cleaved PARP positive nuclei fraction (SkMel5)	cleaved PARP positive nuclei fraction (UACC257)	cleaved PARP positive nuclei fraction (UACC62)
OCc1c[nH]c2ccccc12 [Indole-3-carbinol] + Cc1ccc(NC(=O)c2cccc(N(C)C)c2)cc1NC(=O)c1ccc(O)cc1 [ZM336372] (first compound 0.8 µM, partner dose 2 µM)	101%	208%	79.7%	117%	45.6%	92.7%	614%	43.7%	126%	98.4%
COc1cc(Nc2ncc(F)c(Nc3ccc4c(n3)NC(=O)C(C)(C)O4)n2)cc(OC)c1OC [Tamatinib] + CN(C)S(=O)(=O)c1ccc2c(c1)/C(=C/c1cc3c([nH]1)CCCC3)C(=O)N2 [SU6656] (first compound 0.4 µM, partner dose 0.4 µM)	222%	65.4%	124%	96.3%	104%	47.4%	203%	137%	80.2%	479%
Cn1nnc2c(C(N)=O)ncn2c1=O [temozolomide] + O=C(CCCCCCC(=O)Nc1ccccc1)NO [vorinostat] (first compound 2 µM, partner dose 0.08 µM)	68.6%	64.9%	74.6%	97.3%	41.5%	63.1%	63.8%	176%	129%	84%
Cc1nc(Nc2ncc(C(=O)Nc3c(C)cccc3Cl)s2)cc(N2CCN(CCO)CC2)n1 [dasatanib] + CC1(C)NC(=O)N(c2ccc([N+](=O)[O-])c(C(F)(F)F)c2)C1=O [nilutamide] (first compound 0.004 µM, partner dose 1 µM)	139%	197%	180%	93.3%	75.3%	56.8%	218%	101%	104%	50.1%
CC1(C)NC(=O)N(c2ccc([N+](=O)[O-])c(C(F)(F)F)c2)C1=O [nilutamide] + C[C@@H]1CCN(C(=O)CC#N)C[C@@H]1N(C)c1ncnc2[nH]ccc12 [CP690550] (first compound 1 µM, partner dose 1 µM)	175%	89.8%	38.1%	68.5%	83.8%	218%	90.7%	55.7%	280%	103%
CC(=O)c1c(C)c2cnc(Nc3ccc(N4CCNCC4)cn3)nc2n(C2CCCC2)c1=O [palbociclib] + N#Cc1c(O)c2c(-c3ccc(-c4ccccc4O)cc3)csc2[nH]c1=O [A769662] (first compound 0.04 µM, partner dose 2 µM)	105%	39.5%	44.1%	231%	181%	66.3%	62.7%	103%	246%	168%
OCc1c[nH]c2ccccc12 [Indole-3-carbinol] + COc1ccc(COc2ccc(Cc3cnc(N)nc3N)cc2OC)cc1 [GW2580] (first compound 0.8 µM, partner dose 1 µM)	75.7%	60.6%	91.9%	122%	58.2%	61.5%	595%	75.1%	164%	75.8%
Clc1ccc(Nc2nnc(Cc3ccncc3)c3ccccc23)cc1 [vatalanib] + COc1ccc(COc2ccc(Cc3cnc(N)nc3N)cc2OC)cc1 [GW2580] (first compound 2 µM, partner dose 1 µM)	89.6%	66.3%	50.3%	80.8%	88.9%	350%	379%	209%	166%	139%
CO[C@@H]1[C@H](N(C)C(=O)c2ccccc2)C[C@H]2O[C@]1(C)n1c3ccccc3c3c4c(c5c6ccccc6n2c5c31)C(=O)NC4 [Midostaurin] + O=C(O)c1ccc(-c2c[nH]c3ncc(-c4ccccc4)cc23)cc1C1CCCC1 [GSK650394] (first compound 0.08 µM, partner dose 0.16 µM)	111%	210%	34.9%	41.8%	79.5%	104%	127%	121%	66.1%	46.8%
COc1cc(Nc2ncc(F)c(Nc3ccc4c(n3)NC(=O)C(C)(C)O4)n2)cc(OC)c1OC [Tamatinib] + Cc1cc(N2CCOCC2)cc2[nH]c(-c3c(NC[C@@H](O)c4cccc(Cl)c4)cc[nH]c3=O)nc12 [BMS536924] (first compound 0.4 µM, partner dose 0.2 µM)	225%	128%	308%	56.5%	124%	158%	76.1%	164%	166%	154%
Clc1ccc(Nc2nnc(Cc3ccncc3)c3ccccc23)cc1 [vatalanib] + CCN(CC)CCCCNc1ncc2cc(-c3cc(OC)cc(OC)c3)c(NC(=O)NC(C)(C)C)nc2n1 [PD173074] (first compound 2 µM, partner dose 0.1 µM)	139%	102%	184%	183%	78.6%	101%	140%	153%	103%	37.2%
Cc1cc(N2CCOCC2)cc2[nH]c(-c3c(NC[C@@H](O)c4cccc(Cl)c4)cc[nH]c3=O)nc12 + OCCn1cc(-c2cnc3nnn(Cc4ccc5ncccc5c4)c3n2)cn1 [PF04217903] (first compound 0.2 µM, partner dose 1 µM)	120%	259%	54.6%	165%	31.8%	107%	73%	139%	87.7%	92.4%
COc1cc(Nc2ncc(F)c(Nc3ccc4c(n3)NC(=O)C(C)(C)O4)n2)cc(OC)c1OC [Tamatinib] + NC(=O)Nc1cc(-c2cccc(F)c2)sc1C(=O)N[C@H]1CCCNC1 [AZD7762] (first compound 0.4 µM, partner dose 0.02 µM)	99.1%	148%	200%	77.8%	128%	81%	171%	68.3%	68.8%	149%
Nc1cccc2c1CN(C1CCC(=O)NC1=O)C2=O (stereo not given) [lenalidomide] + C[C@@H]1CCN(C(=O)CC#N)C[C@@H]1N(C)c1ncnc2[nH]ccc12 [CP690550] (first compound 1 µM, partner dose 1 µM)	86.4%	66.6%	50.7%	37.2%	360%	121%	69.8%	54.8%	96.7%	130%
CC(=O)c1c(C)c2cnc(Nc3ccc(N4CCNCC4)cn3)nc2n(C2CCCC2)c1=O [palbociclib] + O=C1NC(=O)/C(=C/c2ccc(-c3ccc(F)cc3O)o2)S1 [AS252424] (first compound 0.04 µM, partner dose 1 µM)	93.9%	137%	54.1%	65.8%	112%	63.6%	131%	205%	636%	247%
OCc1c[nH]c2ccccc12 [Indole-3-carbinol] + O=S(=O)(c1ccccc1)N(CC(F)(F)F)c1ccc(C(O)(C(F)(F)F)C(F)(F)F)cc1 [T0901317] (first compound 0.8 µM, partner dose 1.4 µM)	174%	52.6%	46.9%	136%	183%	87%	18.2%	72.5%	67.1%	133%
CC(=O)c1c(C)c2cnc(Nc3ccc(N4CCNCC4)cn3)nc2n(C2CCCC2)c1=O [palbociclib] + O=C(CCCCCCC(=O)Nc1ccccc1)NO [vorinostat] (first compound 0.04 µM, partner dose 0.08 µM)	151%	93.7%	118%	67.3%	92.1%	77.8%	84.7%	102%	147%	139%
C=CCn1c(=O)c2cnc(Nc3ccc(N4CCN(C)CC4)cc3)nc2n1-c1cccc(C(C)(C)O)n1 + Cc1ccc(NC(=O)c2cccc(N(C)C)c2)cc1NC(=O)c1ccc(O)cc1 [ZM336372] (first compound 0.02 µM, partner dose 2 µM)	108%	139%	50.3%	91.7%	62.9%	99.2%	82.2%	84.7%	60.8%	132%
OCCn1cc(-c2cnc3nnn(Cc4ccc5ncccc5c4)c3n2)cn1 + NCC(=O)Nc1ccc(-n2nc(C(F)(F)F)cc2-c2ccc3c(ccc4ccccc43)c2)cc1 [OSU03012] (first compound 1 µM, partner dose 1 µM)	78.5%	191%	191%	189%	128%	128%	115%	255%	86.8%	31.2%
OCCn1cc(-c2cnc3nnn(Cc4ccc5ncccc5c4)c3n2)cn1 + CN(C)S(=O)(=O)c1ccc2c(c1)/C(=C/c1cc3c([nH]1)CCCC3)C(=O)N2 [SU6656] (first compound 1 µM, partner dose 0.4 µM)	74.1%	72.1%	118%	90.2%	61%	36.9%	151%	35.3%	68.7%	39.4%
C=CCNC1=C2C[C@@H](C)C[C@H](OC)[C@H](O)[C@@H](C)/C=C(\C)[C@H](OC(N)=O)[C@@H](OC)/C=C\C=C(/C)C(=O)NC(=CC1=O)C2=O [Tanespimycin] + O=C(CCCCCCC(=O)Nc1ccccc1)NO [vorinostat] (first compound 0.002 µM, partner dose 0.08 µM)	158%	143%	127%	120%	211%	83.5%	212%	125%	107%	27.2%
Cn1cncc1[C@@](N)(c1ccc(Cl)cc1)c1ccc2c(c1)c(-c1cccc(Cl)c1)cc(=O)n2C [tipifarnib] + CN(C)S(=O)(=O)c1ccc2c(c1)/C(=C/c1cc3c([nH]1)CCCC3)C(=O)N2 [SU6656] (first compound 0.01 µM, partner dose 0.4 µM)	127%	71%	148%	75%	101%	107%	134%	101%	76.9%	205%

Quoted from the entries so far (four entries):
Structure (SMILES)	cleaved PARP positive nuclei fraction (MZ2-MEL)	cleaved PARP positive nuclei fraction (MeWo)	cleaved PARP positive nuclei fraction (RPMI7951)	cleaved PARP positive nuclei fraction (RVH-421)	cleaved PARP positive nuclei fraction (SkMel28)	cleaved PARP positive nuclei fraction (SkMel2)	cleaved PARP positive nuclei fraction (SkMel30)	cleaved PARP positive nuclei fraction (SkMel5)	cleaved PARP positive nuclei fraction (UACC257)	cleaved PARP positive nuclei fraction (UACC62)
Clc1ccc(Nc2nnc(Cc3ccncc3)c3ccccc23)cc1 [vatalanib] + CCN(CC)CCCCNc1ncc2cc(-c3cc(OC)cc(OC)c3)c(NC(=O)NC(C)(C)C)nc2n1 [PD173074] (first compound 2 µM, partner dose 0.1 µM)	139%	102%	184%	183%	78.6%	101%	140%	153%	103%	37.2%
Cc1cc(N2CCOCC2)cc2[nH]c(-c3c(NC[C@@H](O)c4cccc(Cl)c4)cc[nH]c3=O)nc12 + OCCn1cc(-c2cnc3nnn(Cc4ccc5ncccc5c4)c3n2)cn1 [PF04217903] (first compound 0.2 µM, partner dose 1 µM)	120%	259%	54.6%	165%	31.8%	107%	73%	139%	87.7%	92.4%
COc1cc(Nc2ncc(F)c(Nc3ccc4c(n3)NC(=O)C(C)(C)O4)n2)cc(OC)c1OC [Tamatinib] + NC(=O)Nc1cc(-c2cccc(F)c2)sc1C(=O)N[C@H]1CCCNC1 [AZD7762] (first compound 0.4 µM, partner dose 0.02 µM)	99.1%	148%	200%	77.8%	128%	81%	171%	68.3%	68.8%	149%
Nc1cccc2c1CN(C1CCC(=O)NC1=O)C2=O (stereo not given) [lenalidomide] + C[C@@H]1CCN(C(=O)CC#N)C[C@@H]1N(C)c1ncnc2[nH]ccc12 [CP690550] (first compound 1 µM, partner dose 1 µM)	86.4%	66.6%	50.7%	37.2%	360%	121%	69.8%	54.8%	96.7%	130%
